From publication PMC12318970 come the findings set out here.

The chains behind the UniProt entries cited, without tags or fusion partners. Residues count along the entry.
UniProt P18627, 23-525: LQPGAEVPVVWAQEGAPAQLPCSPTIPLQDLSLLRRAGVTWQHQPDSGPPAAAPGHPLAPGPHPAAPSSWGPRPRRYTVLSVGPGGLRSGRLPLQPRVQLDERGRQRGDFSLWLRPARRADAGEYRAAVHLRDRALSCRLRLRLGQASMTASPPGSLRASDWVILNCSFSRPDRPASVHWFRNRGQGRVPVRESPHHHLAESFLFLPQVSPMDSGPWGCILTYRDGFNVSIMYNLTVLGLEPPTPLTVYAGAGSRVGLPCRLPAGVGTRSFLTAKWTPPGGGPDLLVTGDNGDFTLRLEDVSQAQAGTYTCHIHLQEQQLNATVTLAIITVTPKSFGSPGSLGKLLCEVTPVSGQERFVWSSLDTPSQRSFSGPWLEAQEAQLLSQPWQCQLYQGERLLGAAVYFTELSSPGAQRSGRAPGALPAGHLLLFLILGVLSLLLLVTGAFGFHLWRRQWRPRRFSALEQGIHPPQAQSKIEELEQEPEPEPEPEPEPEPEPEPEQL

The exact form of at least one protein or probe is not confirmed. Where cells or extracts were used, other partners may take part. At least one verdict was read from the data and is not stated in words by the source.

The target of data set [1] is HER2 on HepG2 cells (UniProt P04626). Kind of data set: flow cytometry. The following applies: 500 nM aptamer, HepG2 cells, reduced by anti-HER2 antibody, PBS, 4x10^5 cells in 500 uL, 30 min (flow cytometry, temperature not stated), microscopy at 37 C, protein on the cell surface, label: Cy5, single-stranded DNA. On the technique in general: In flow cytometry, cells or beads pass a laser one at a time.

Data set [2] concerns the target HER2 on A549 cells (UniProt P04626). Kind of data set: flow cytometry. The following applies: 500 nM aptamer, A549 cells, reduced by anti-HER2 antibody, PBS, 4x10^5 cells in 500 uL, 30 min (flow cytometry, temperature not stated), microscopy at 37 C, protein on the cell surface, label: Cy5, single-stranded DNA.
Data set [3] has as its target LAG3 on Jurkat cells (UniProt P18627). The data set can be described thus: flow cytometry. The following applies: 500 nM aptamer, Jurkat cells, reduced by anti-LAG3 antibody, PBS, 4x10^5 cells in 500 uL, 30 min (flow cytometry, temperature not stated), microscopy at 37 C, protein on the cell surface, label: Cy3, single-stranded DNA.
The target in data set [4] is HER2 on HepG2 cells (UniProt P04626). The data set can be described thus: competition with a labelled probe. Particulars: competes with 500 nM Cy5-HER2-apt on HepG2 cells (flow cytometry), Cy7-HLB-apt signal by microscopy, PBS, 500 nM aptamer, 4x10^5 cells in 500 uL, 30 min (flow cytometry, temperature not stated), microscopy at 37 C, protein on the cell surface, label: Cy7 (microscopy), unlabelled competitor, single-stranded DNA.

The target in data set [5] is HER2 on A549 cells (UniProt P04626). The data set can be described thus: competition with a labelled probe. The following applies: competes with 500 nM Cy5-HER2-apt on A549 cells (flow cytometry), Cy7-HLB-apt signal by microscopy, PBS, 500 nM aptamer, 4x10^5 cells in 500 uL, 30 min (flow cytometry, temperature not stated), microscopy at 37 C, protein on the cell surface, label: Cy7 (microscopy), unlabelled competitor, single-stranded DNA.

The target in data set [6] is LAG3 on Jurkat cells (UniProt P18627). The data set can be described thus: competition with a labelled probe. Particulars: competes with 500 nM Cy3-LAG3-apt on Jurkat cells (flow cytometry), Cy7-HLB-apt signal by microscopy, PBS, 500 nM aptamer, 4x10^5 cells in 500 uL, 30 min (flow cytometry, temperature not stated), microscopy at 37 C, protein on the cell surface, label: Cy7 (microscopy), unlabelled competitor, single-stranded DNA.

For “AGCCGCGAGGGGAGGGATAGGGTAGGGCGCGGCT [HER2-apt (2#)]”, the binding result with HER2 on HepG2 cells [1] and in the data set with HER2 on A549 cells [2] was “binds” throughout.

Consider “GGGAGAGAGATATAAGGGCCTCCTGATACCCGCTGCTATCTGGACCGATCCCATTACCAAATTCTCTCCC [LAG3-apt (1#)]”, for which the binding result with LAG3 on Jurkat cells [3] is listed as “binds”.

With “GGGAGAGAGATATAAGGGCCTCCTGATACCCGCTGCTATCTGGACCGATCCCATTACCAAATTCTCTCCCTTTTTTTTTTAGCCGCGAGGGGAGGGATAGGGTAGGGCGCGGCT [HLB-apt (LAG3-apt 1# - T10 - HER2-apt 2#)]”, the binding result with HER2 on HepG2 cells [4], in the data set with HER2 on A549 cells [5] and with LAG3 on Jurkat cells [6] was “binds” in each case.
